Taken from: PubChem BioAssay AID493246 (Drosophila RNAi Screening Center, 2011)

Assay: 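Identify essential fly genes by loss of cell viability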 (primary screen)
Cells: Drosophila Kc and S2R+ cells
Knock-down reagent: long dsRNA against Drosophila genes
Measured: 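Raw, unnormalised count of remaining cells in each well; per-plate z-scores of cell number underlie the calls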
Reading the numbers: Kc cell number and S2R+ cell number: higher = more cells remaining
Rule for the call: 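Counted as a hit if cell number falls by a z-score of at least 3 within its plate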
The screen tested about 21,000 reagents; below is a random part of those with a known target gene and a result. Over the whole deposit, 429 (2%) got an active call. 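Values are raw and not normalised between plates; calls rest on per-plate z-scores that were not deposited.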 A number with no mark means an inactive call. A plus sign joins genes that one reagent is predicted to hit. The record does not give: the amount of reagent, the time to read-out.

no.	gene	DRSC id	Kc cell number, rep 1	Kc cell number, rep 2	S2R+ cell number, rep 1	S2R+ cell number, rep 2
1	hook	DRSC03545	1.33e6	1.35e6	1.23e6	1.25e6
2	CG34281	DRSC14807	1.43e6	1.46e6	1.03e6	1.03e6
3	Ppox	DRSC17033	1.39e6	1.57e6	1.07e6	1.12e6
4	ncm	DRSC02179	1.15e6	1.23e6	1.02e6	1.02e6
5	CycH	DRSC11861	1.47e6	1.47e6	1.36e6	1.44e6
6	CG31086 + CG31323	DRSC14902	1.79e6	1.81e6	1.07e6	1.18e6
7	Khc	DRSC07448	1.33e6	1.37e6	1.15e6	1.20e6
8	CG7110	DRSC03011	1.30e6	1.36e6	1.32e6	1.27e6
9	CG7110	DRSC03012	1.56e6	1.62e6	1.24e6	1.40e6
10	Elal	DRSC16662	1.85e6	1.86e6	1.41e6	1.48e6
11	thetaTry	DRSC07705	1.50e6	1.53e6	1.28e6	1.35e6
12	PH4alphaNE3	DRSC16541	5.69e5		8.44e5	
13	Hmgs	DRSC06866	1.48e6	1.53e6	9.82e5	1.10e6

As entered above:
Under “Kc cell number, rep 1”, Khc [DRSC07448] shows 1.33e6
Ppox [DRSC17033], S2R+ cell number, rep 1 → 1.07e6

Continued.
no.	gene	DRSC id	Kc cell number, rep 1	Kc cell number, rep 2	S2R+ cell number, rep 1	S2R+ cell number, rep 2
14	cass	DRSC01850	1.22e6	1.28e6	8.90e5	1.04e6
15	CG12911	DRSC06226	1.55e6	1.52e6	1.29e6	1.32e6
16	CG33340	DRSC14615	1.64e6	1.86e6	1.04e6	1.17e6
17	Apc2	DRSC14115	1.75e6	1.79e6	1.31e6	1.39e6
18	Src42A	DRSC04915	1.56e6	1.62e6	1.32e6	1.45e6
19	CG14562	DRSC11723	1.32e6	1.42e6	1.27e6	1.35e6
20	stmA	DRSC05120	1.39e6	1.48e6	9.78e5	1.08e6
21	stmA	DRSC07593	1.42e6	1.65e6	1.08e6	1.08e6
22	CG13679	DRSC10037	1.47e6	1.62e6	1.02e6	1.18e6
23	CG16786	DRSC04281	1.55e6	1.63e6	1.23e6	1.35e6
24	Nf-YA	DRSC10385	1.51e6	1.45e6	8.74e5	1.03e6
